Data as given in PubChem BioAssay AID686938 (Drosophila RNAi Screening Center, 2013).

Aim: 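Knock-downs reducing store-operated calcium influx in Drosophila cells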 (primary screen)
Cells: Drosophila S2R+ cells
Reagents: long dsRNA against Drosophila genes, about 0.25 µg dsRNA per well, roughly 10,000 cells
Timing: 5 days of knock-down before the calcium assay
Conditions: thapsigargin (SERCA pump blocker) to empty calcium stores; entry signal taken 4 min after adding it
Detection: 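Per-well fluo-4 fluorescence in two replicates, unnormalised, measured in resting cells and 4 min after store depletion by the SERCA blocker thapsigargin; ratio of the two present in few wells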
Direction: calcium entry signal: higher = stronger calcium signal after store depletion; resting calcium signal: higher = higher resting calcium signal
Units: calcium entry signal in fluorescence units; resting calcium signal in fluorescence units
Hit rule: 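Called when the plate z-score of the entry-to-rest ratio, mean of duplicates, falls below −3; wells with low overall dye signal (Fmax z below −2) or more than five off-targets excluded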
Meaning of the calls: active = strongly reduced calcium entry; inactive = no strong reduction
The screen tested about 23,000 reagents; shown is an unselected part of those with a known target gene and a result. Over the whole deposit, 75 (0.33%) were called active. 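Raw plate signals without normalisation; calls rest on plate z-scores that were not deposited; ratio present for only 364 wells.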 Reagents against one gene are numbered here. Names joined by + are all predicted targets of the reagent. Not stated in the record: the dose of the treatment.

Pka-C2 (Protein kinase, cAMP-dependent, catalytic subunit 2) #1 — calcium entry signal, replicate 1 = 3.27e7; calcium entry signal, replicate 2 = 3.66e7; resting calcium signal, replicate 1 = 1.82e7; resting calcium signal, replicate 2 = 2.05e7; outcome = inactive
Pka-C2 (Protein kinase, cAMP-dependent, catalytic subunit 2) #2 — calcium entry signal, replicate 1 = 3.21e7; calcium entry signal, replicate 2 = 3.54e7; resting calcium signal, replicate 1 = 1.67e7; resting calcium signal, replicate 2 = 1.73e7; outcome = inactive
GMF (Glia maturation factor) — calcium entry signal, replicate 1 = 4.85e7; resting calcium signal, replicate 1 = 2.35e7; outcome = inactive
Ir21a + asRNA:CR43609 — calcium entry signal, replicate 1 = 3.46e7; calcium entry signal, replicate 2 = 3.29e7; resting calcium signal, replicate 1 = 1.67e7; resting calcium signal, replicate 2 = 1.57e7; outcome = inactive
Cox11 (Cytochrome c oxidase copper chaperone COX11) — calcium entry signal, replicate 1 = 3.88e7; calcium entry signal, replicate 2 = 4.00e7; resting calcium signal, replicate 1 = 1.87e7; resting calcium signal, replicate 2 = 1.64e7; outcome = inactive
CG9281 — calcium entry signal, replicate 1 = 3.95e7; calcium entry signal, replicate 2 = 4.15e7; resting calcium signal, replicate 1 = 1.82e7; resting calcium signal, replicate 2 = 1.83e7; outcome = inactive
nopo (no poles) — calcium entry signal, replicate 1 = 3.84e7; calcium entry signal, replicate 2 = 3.58e7; resting calcium signal, replicate 1 = 1.83e7; resting calcium signal, replicate 2 = 1.85e7; outcome = inactive
CG7366 — calcium entry signal, replicate 1 = 2.57e7; calcium entry signal, replicate 2 = 1.95e7; resting calcium signal, replicate 1 = 1.31e7; resting calcium signal, replicate 2 = 1.06e7; outcome = inactive
CG18788 — calcium entry signal, replicate 1 = 3.29e7; calcium entry signal, replicate 2 = 2.27e7; resting calcium signal, replicate 1 = 1.55e7; resting calcium signal, replicate 2 = 1.13e7; outcome = inactive
cyc (cycle) — calcium entry signal, replicate 1 = 3.13e7; calcium entry signal, replicate 2 = 5.35e7; resting calcium signal, replicate 1 = 1.54e7; resting calcium signal, replicate 2 = 2.19e7; outcome = inactive
tgy (twiggy) — calcium entry signal, replicate 1 = 5.30e7; calcium entry signal, replicate 2 = 4.08e7; resting calcium signal, replicate 1 = 2.56e7; resting calcium signal, replicate 2 = 1.84e7; outcome = inactive
Acsx2 (Acyl-CoA synthetase X2) — calcium entry signal, replicate 1 = 4.25e7; calcium entry signal, replicate 2 = 4.54e7; resting calcium signal, replicate 1 = 6.29e7; resting calcium signal, replicate 2 = 2.08e7; outcome = inactive
